Experimental data from PubChem BioAssay AID192 (DTP/NCI, 2004).
The list is a part of this screen's results and no random one: it gathers tests that were run many times, whatever their T/C, doses with no T/C, and many T/C values between a quarter and a half above the control. Other doses and runs of a compound stand elsewhere. T/C: endpoint of the treated group in % of that of the vehicle group. Some entries give survivors of the animals treated and no T/C: the source files T/C as zero there, which appears to mark a toxic dose or a test without result, not a measured value. Some survivor counts are full or nearly so, which does not show that the dose was tolerated: the source hardly ever lists a survival T/C far under the control, and the zero likely stands for such cases as well. Counts of survivors are from the toxicity check (mostly the fifth day) where no day follows; animals may have died later. Schedule codes are those of the source, read here as Q, the interval in days (D) or hours (H), X, the number of doses. Some doses were run more than once; their values stand side by side, smallest first. Counts like (3×) count equal records among those shown. For survival time, this PubChem deposit counts one and a half times the control or more as active, and values a quarter to a half above the control carry no call in these data; other NCI protocols may use other cut-offs. Some T/C values carry the count of animals alive at the toxicity check (mostly the fifth day); without a count, all were alive then. Numbered stars: 1 amine (or outer) side, 2 acyl side, 3 side chain; on linkers, the order of the positions; unused ones are H or OH. Bridge positions count the residues as written; N and C are the ends. Square brackets hold non-standard residues; d marks the D form. Peptide text beside a SMILES is read from it. I, II: the chains in the order shown. Actinocin(9to1) = Cc1c2oc3c(C)ccc(C(=O)[*:1])c3nc-2c(C(=O)[*:2])c(N)c1=O; NMeV = CN[CH](C(=O)O)C(C)C; Sar = CNCC(=O)O

System: BDF1 mice, B16 melanoma ip, median survival T/C
Assay: NCI In Vivo Anticancer Drug Screen. Data for tumor model B16 Melanoma (intraperitoneal) in B6D2F1 (BDF1) mice
Conditions: T/C endpoint: median survival time, higher T/C = longer survival
Procedure, shortened: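 Survival or tumor size is measured after treatment of tumor-bearing mice and normalised to the vehicle-treated control group.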

[1] = dose: 2.5 mg/kg/injection, schedule: Q01DX009 (ip), vehicle: other
[2] = dose: 5.0 mg/kg/injection, schedule: Q01DX009 (ip), vehicle: other
[3] = dose: 15.0 mg/kg/injection, schedule: Q04DX003 (ip), vehicle: lactic acid
[4] = dose: 100.0 mg/kg/injection, schedule: Q01DX001 (ip), vehicle: water
[5] = dose: 200.0 mg/kg/injection, schedule: Q01DX001 (ip), vehicle: water

COC1C(C)OC(OC2CC(C)(O)Cc3cc4c(c(O)c32)C(=O)c2c(O)cc3c(c2C4=O)OC2OC3(C)C(O)C(N(C)C)C2O)C(OC)C1(C)OC (stereo not given)
survivor count (dose: 0.04 mg/kg/injection, schedule: Q01DX009 (ip), vehicle: other): 4 of 10
survivor count (dose: 0.08 mg/kg/injection, schedule: Q01DX009 (ip), vehicle: other): 4 of 10
survivor count (dose: 0.15 mg/kg/injection, schedule: Q01DX009 (ip), vehicle: other): 3 of 10
survivor count (dose: 0.16 mg/kg/injection, schedule: Q01DX009 (ip), vehicle: other): 7 of 10 and 10 of 10
survivor count (dose: 0.3 mg/kg/injection, schedule: Q01DX009 (ip), vehicle: other): 5 of 10
T/C (dose: 0.31 mg/kg/injection, schedule: Q01DX009 (ip), vehicle: other, evaluated on day 45): 145 % of control
T/C (dose: 0.31 mg/kg/injection, schedule: Q01DX009 (ip), vehicle: other, evaluated on day 60): 211 % of control
survivor count (dose: 0.31 mg/kg/injection, schedule: Q01DX009 (ip), vehicle: other): 7 of 10 and 10 of 10
survivor count (dose: 0.6 mg/kg/injection, schedule: Q01DX009 (ip), vehicle: other): 3 of 10
T/C (dose: 0.62 mg/kg/injection, schedule: Q01DX009 (ip), vehicle: other): 96, 107 [7 of 10 alive], 117, 161, 189 % of control
survivor count (dose: 0.63 mg/kg/injection, schedule: Q01DX009 (ip), vehicle: other): 10 of 10
T/C (dose: 1.25 mg/kg/injection, schedule: Q01DX009 (ip), vehicle: other, evaluated on day 45): 164 % of control
T/C (dose: 1.25 mg/kg/injection, schedule: Q01DX009 (ip), vehicle: other, evaluated on day 60): 112, 132 [8 of 10 alive], 144, 186 [9 of 10 alive], 217 % of control
survivor count (dose: 1.25 mg/kg/injection, schedule: Q01DX009 (ip), vehicle: other): 0 of 10
T/C [1]: 101 and 228 % of control
survivor count [1]: 3 of 10, 6 of 10, 7 of 10 (2×)
T/C [2]: 117, 203 [9 of 10 alive], 218 % of control
survivor count [2]: 3 of 10
T/C (dose: 5.4 mg/kg/injection, schedule: Q04DX003 (ip), vehicle: lactic acid): 136 % of control
T/C (dose: 9.0 mg/kg/injection, schedule: Q04DX003 (ip), vehicle: lactic acid): 135 % of control
survivor count (dose: 10.0 mg/kg/injection, schedule: Q01DX009 (ip), vehicle: other): 0 of 10, 4 of 10, 8 of 10, 9 of 10
T/C [3]: 131 % of control
survivor count [3]: 9 of 10

COc1cccc2c1C(=O)c1c(O)c3c(c(O)c1C2=O)C[C@@](O)(C(C)=O)C[C@@H]3OC1CC(O)C(O)C(C)O1 (stereo not given in full)
T/C (dose: 12.5 mg/kg/injection, schedule: Q01DX001 (ip), vehicle: water, evaluated on day 40): 113 % of control
T/C (dose: 12.5 mg/kg/injection, schedule: Q01DX001 (ip), vehicle: water, evaluated on day 60): 113, 127 [9 of 10 alive], 132 % of control [9 of 10 alive]
T/C (dose: 25.0 mg/kg/injection, schedule: Q01DX001 (ip), vehicle: water, evaluated on day 40): 126 % of control
T/C (dose: 25.0 mg/kg/injection, schedule: Q01DX001 (ip), vehicle: water, evaluated on day 60): 139, 140, 147 % of control
T/C (dose: 50.0 mg/kg/injection, schedule: Q01DX001 (ip), vehicle: water, evaluated on day 40): 146 % of control
T/C (dose: 50.0 mg/kg/injection, schedule: Q01DX001 (ip), vehicle: water, evaluated on day 60): 140, 143, 153 % of control
T/C [4]: 137, 152 [9 of 10 alive], 179 % of control [8 of 10 alive]
survivor count [4]: 6 of 10
T/C [5]: 119 % of control
survivor count [5]: 2 of 10, 4 of 10, 5 of 10

CC[C@@H](C)[C@@H]1NC(=O)C(NC(=O)C(CC(C)C)N(C)C(=O)C2CCCN2C(=O)C(C)O)C(C)OC(=O)C(Cc2ccc(OC)cc2)N(C)C(=O)C2CCCN2C(=O)C(CC(C)C)NC(=O)C(C)C(=O)C(C(C)C)OC(=O)C[C@H]1O (stereo not given in full)
T/C (dose: 20.0 micrograms/kg/injection, schedule: Q01DX009 (ip), vehicle: clinical formulation): 140 % of control
T/C (dose: 20.0 micrograms/kg/injection, schedule: Q01DX009 (ip), vehicle: distilled water + alcohol): 127 % of control
T/C (dose: 40.0 micrograms/kg/injection, schedule: Q01DX009 (ip), vehicle: clinical formulation): 139 % of control
T/C (dose: 40.0 micrograms/kg/injection, schedule: Q01DX009 (ip), vehicle: distilled water + alcohol): 127 % of control
T/C (dose: 80.0 micrograms/kg/injection, schedule: Q01DX009 (ip), vehicle: distilled water + alcohol): 141 % of control

O=C1N[C@@H]2C(=C[C@H](O)[C@@H](O)[C@H]2O)c2cc3c(c(O)c21)OCO3
survivor count (dose: 5.0 mg/kg/injection, schedule: Q01DX009 (ip), vehicle: saline with Tween-80): 10 of 10
survivor count (dose: 10.0 mg/kg/injection, schedule: Q01DX009 (ip), vehicle: saline with Tween-80): 9 of 10

Cc1c2oc3c(C)ccc(C(=O)NC4C(=O)NC(C(C)C)C(=O)N(C)CC(=O)N(C)CC(=O)N(C)C(C(C)C)C(=O)OC4C)c3nc-2c(C(=O)NC2C(=O)NC(C(C)C)C(=O)N(C)CC(=O)N(C)CC(=O)N(C)C(C(C)C)C(=O)OC2C)c(N)c1=O (stereo not given) (I: TV[Sar][Sar][NMeV] / II: TV[Sar][Sar][NMeV]; ester I:1-I:C, II:1-II:C; linker I:N-II:N via Actinocin(9to1); configuration not given here)
survivor count (dose: 1.6 mg/kg/injection, schedule: Q01DX009 (ip), vehicle: water): 10 of 10
survivor count (dose: 2.4 mg/kg/injection, schedule: Q01DX009 (ip), vehicle: water): 10 of 10
T/C (dose: 250.0 micrograms/kg/injection, schedule: Q01DX009 (ip), vehicle: saline + alcohol): 142 % of control
T/C (dose: 500.0 micrograms/kg/injection, schedule: Q01DX009 (ip), vehicle: saline + alcohol): 142 % of control
T/C (dose: 750.0 micrograms/kg/injection, schedule: Q04DX003 (ip), vehicle: saline + alcohol): 139 and 144 % of control
T/C (dose: 1000.0 micrograms/kg/injection, schedule: Q01DX009 (ip), vehicle: saline + alcohol): 140 % of control
T/C (dose: 1500.0 micrograms/kg/injection, schedule: Q04DX003 (ip), vehicle: saline + alcohol): 126 % of control
survivor count (dose: 2000.0 micrograms/kg/injection, schedule: Q01DX009 (ip), vehicle: saline + alcohol): 10 of 10
T/C (dose: 3000.0 micrograms/kg/injection, schedule: Q04DX003 (ip), vehicle: saline + alcohol): 133 % of control
survivor count (dose: 6000.0 micrograms/kg/injection, schedule: Q04DX003 (ip), vehicle: saline + alcohol): 5 of 10 and 6 of 10

O=NN(CCCl)C(=O)Nc1ccc2c3c(cccc13)-c1ccccc1-2
T/C (dose: 6.25 mg/kg/injection, schedule: Q01DX009 (ip), vehicle: Klucel (hydroxypropylcellulose) (HPC)): 147 % of control
T/C (dose: 12.5 mg/kg/injection, schedule: Q01DX009 (ip), vehicle: Klucel (hydroxypropylcellulose) (HPC)): 135 % of control
T/C (dose: 25.0 mg/kg/injection, schedule: Q01DX009 (ip), vehicle: Klucel (hydroxypropylcellulose) (HPC)): 134 % of control
T/C (dose: 50.0 mg/kg/injection, schedule: Q01DX009 (ip), vehicle: Klucel (hydroxypropylcellulose) (HPC)): 131 % of control
T/C (dose: 100.0 mg/kg/injection, schedule: Q01DX009 (ip), vehicle: Klucel (hydroxypropylcellulose) (HPC)): 148 % of control
survivor count (dose: 200.0 mg/kg/injection, schedule: Q01DX009 (ip), vehicle: Klucel (hydroxypropylcellulose) (HPC)): 7 of 10

CC[n+]1ccc(Nc2ccc(NC(=O)c3ccc(C(=O)Nc4ccc(Nc5cc[n+](CC)c(N)n5)cc4)cc3)cc2)nc1N
survivor count (dose: 6.25 mg/kg/injection, schedule: Q01DX009 (ip), vehicle: suspension in saline): 10 of 10
T/C (dose: 12.5 mg/kg/injection, schedule: Q01DX009 (ip), vehicle: suspension in saline): 140 % of control
survivor count (dose: 100.0 mg/kg/injection, schedule: Q01DX009 (ip), vehicle: suspension in saline): 10 of 10
survivor count (dose: 200.0 mg/kg/injection, schedule: Q01DX009 (ip), vehicle: suspension in saline): 9 of 10
